Source: publication PMC7069958, “Multi-level and lineage-specific interactomes of the Hox transcription factor Ubx contribute to its functional specificity”
Results are given in words; binding and its absence hold for the method and conditions named. In cells and extracts the contact can be indirect. These calls come from enrichment with a bait or labelling near it, and not all partners need be listed.

B1: Bx-42, endogenous (protein, UniProt P39736 1-547)
chain: MSLSSLLPTPTNAIWDREDERRLVARGAPKIGALVSAKIAAPPYGQRKDWVPHTDADFGDGGAFPEIHVAQYPLGLGAPGNVGKKSDALAVRLDDKGKVKYDAIARQGHGKDKIVYSSISQLLPAEVLAEDADELQRPDEETVMETTEETRLALEKLTNQKITSALPVRHAQKAGPAQYIRYTPSQQGDTFNSGAKQRVIRMVEAQLDPMEPPKFRINKKIPRGPPSPPAPVLHSPSRKVTVKEQKEWKIPPCISNWKNAKGYTIPLDKRLAADGRGLQQVHINEKFAKMAEALYIADRKAREAVEARSQLEKKLAQKEKEKKEDMLRMMAQRAREERAGLRNPEAAEPSGSGATGSEVRERNDLRAERQRERQRDRNLQRAAPEKRSKLQKERERDISEQIALGLPAKSAGNGETLFDQRLFNTTKGMDSGYGDDEAYNVYDKPWRDSNTLGAHIYRPSKQADSDNYGGDLDAIVNTKRFVPDKQFSGASKEAAAGQRSGPVEFEKEEDPFGLDQFLNMAKKAPKRAEEKNNERSSHSDRKRSKRD
B2: Brick a brac 2 (Bab2), endogenous (protein, UniProt Q9W0K4 1-1067)
chain: MDMTKQIVDFEIKSELIGEIDQFEASDYTMAPPEEPKMVEESPQLGHLEDQNRKYSPEREVEPTLQDPSEVVDQMQKDTESVGEVKSPEKDVETELVKSKASPMNDQALTPPPRPLTSSEVVGLRDPEHTELRMCLEAKKSRSLPVSPQPQPNLKLAGSALFEFGQRSSPVETKIKTNPETKPPRRKIVPPSGEGQQFCLRWNNYQSNLTNVFDELLQSESFVDVTLSCEGHSIKAHKMVLSACSPYFQALFYDNPCQHPIIIMRDVSWSDLKALVEFMYKGEINVCQDQINPLLKVAETLKIRGLAEVSAGRGEGGASALPMSAFDDEDEEEELASATAILQQDGDADPDEEMKAKRPRLLPEGVLDLNQRQRKRSRDGSYATPSPSLQGGESEISERGSSGTPGQSQSQPLAMTTSTIVRNPFASPNPQTLEGRNSAMNAVANQRKSPAPTATGHSNGNSGAAMHSPPGGVAVQSALPPHMAAIVPPPPSAMHHHAQQLAAQHQLAHSHAMASALAAAAAGAGAAGAGGAGSGSGSGASAPTGGTGVAGSGAGAAVGSHHDDMEIKPEIAEMIREEERAKMIESGGHGGWMGAAAAATGAASVAADSYQYQLQSMWQKCWNTNQQNLVQQLRFRERGPLKSWRPEAMAEAIFSVLKEGLSLSQAARKFDIPYPTFVLYANRVHNMLGPSLDGGADPRPKARGRPQRILLGMWPEELIRSVIKAVVFRDYREIKEDMSAHQYANGQGHGTYIGGGTTTNGYHSAAAAKLAAQNAALAPPDAGSPLSSMTETLRRQILSQQQQHQQHHQQQAHHQQQPSHHQQQSPHAQSMNMYKSPAYLQRSEIEDQVSAAAAVAAAAAKHQQQQGERRGSENLPDLSALGLMGLPGLNVMPSRGSGGGSGGAAPNSAASYARELSRERERDRERERERELSRQYGSQSRGSSSGSGSAKSLTASQRPGAASPYSAAHYAKHQASAYNKRFLESLPAGIDLEAFANGLLQKSVNKSPRFEDFFPGPGQDMSELFANPDASAAAAAAAYAPPGAIRESPLMKIKLEQQHATELPHED
B3: Nucampholin (Ncm), endogenous (protein, UniProt Q9VJ87 1-1330)
chain: MGESDAESDSSSNSSSSDTSSGSDSDARSESSSSESSGREEEEAKQEESAKDAKKTDDTDRGEKRAKERDAGQDEQPTEQKKTPAAEPRSERQHISHSAGVEKQQEEAVAAAEAESEKLNEAKKVETPVQRKEEAEASSVTKELNSPKAQEENAARELEERRKDEEQPVTTNGSSKESPVEAAAETVKPPTADHIEEGEITDKDEDDLPTKEEKKAVASKSPPKETQRKQSRSPDGKRRRPRSSSRSPSPSSRRRRRSRSKGSRTRSRSKSPIRRRSNSLERRRVERQRRHEERDKRDEERAKEREKRHQKGEPTSSRRRDDSREKKRSPERKRDRSSSTPKSKSSKTPRHTETTETNADNETVTEPAAKITERQRKTVDVLTSRTGGAYIPPAKLRMMQSQITDKSSAAYQRIAWEALKKSIHGYINKVNVTNIAIITRELLRENIVRGRGLLSRSIIQAQAASPTFTHVYAALVSIINSKFPNIGELLLKRLVIQFRRAFRRNDKMVCMSATRFIGHLVNQRVAHEILALEILTLLVETPTDDSVEVAIAFLKECGMKLTEVSSKGIGAIFEMLRNILHEGKLDKRVQYMIEVLFQIRKDGFKDHQAVVPELELVEEDDQFTHLMMLDEATETEDILNVFKFDDNYAENEDKYKGLSREILGSDDGSSSGSGSGSDSDSDSDGESGSDAEKKAEAGDIIDSTETNLIALRRTIYLTINSSLDYEECAHKLMKMQLKPGQEIELCHMFLDCCAEQRTYEKFYGLLAQRFCNINKIYIPPFEEIFKDTYQTTHRLDTNRLRNVSKFFAHLLFTDAISWDVLECIQLNEDDTTSSSRIFIKILFQELAEYMGLGKLNAKLKDDVLVESIAGLFPKDNPRNTRFSINFFTSIGLGGLTDDLRRFLKNAPKSVPAINAEILANAGGNPFRDGSAPAGNTKVAPSSSSSSSSSSDTDSEDSSEEDSSSDSSSESSSSDSSSEPKKKRKRKDKDKKKSKKATKEKSKKTKNKKKKKKAEKEQEKEKEKQRKSKKEKEKDKKRKKEEKKAAKKKSKHRRKSQESSDSSGSEDSDKSTSESSDSSNSSSDESDAEPQAKIKRQEHVEKNKFRGRTQDSDEFNLEGPGSKNRFQPNGNGQRRRDNSTGRERNRENSSYDRERNRGNSSYDRERKRGNSSYDRERNRESSYDKERKNRNAVAHDRQRKRDRSRSYERPTIRENSAPREKRMESSRSEKDSRRGDRSSRNERSDRGERSDRGERSDRGERSDRGERSDRGERSDRGERSDREKERSRAKERERDRDRDLKGQRERKRERDDGSRDRSRRERSSRRSKGRS
B4: Tinman (Tin), endogenous (protein, UniProt P22711 1-416)
chain: MLQHHQQQAQSGGYYDHYTQSPSPGSLTNADALNTTPFSVKDILNMVNQTEAYEGSYGHIDGAATASALFAAGEYQNPHQYLNHQQHQQSELPIPQQQLHHQHLDDGATTSSSLSPLLPPPPHQLYGGYQDYGMPAHMFQHHHGHPHQSFQHSASAYNMSASQFYAGASATAYQTPATYNYNYAGSGEVYGGATPSAVGIKSEYIPTPYVTPSPTLDLNSSAEVDSLQAPTQKLCVNPLSQRLMETASNSSSLRSIYGSDEGAKKKDNSQVTSSRSELRKNSISGNSNPGSNSGSTKPRMKRKPRVLFSQAQVLELECRFRLKKYLTGAEREIIAQKLNLSATQVKIWFQNRRYKSKRGDIDCEGIAKHLKLKSEPLDSPTSLPPPIPNHVMWPPTMQQSQQQQQHHAQQQQMQHM
B5: small ribonucleoprotein particle U1 subunit 70 K (snRNPU1-70K), endogenous (protein, UniProt P17133 1-448)
chain: MTQYLPPNLLALFAAREPIPFMPPVDKLPHEKKSRGYLGVAKFMADFEDPKDTPLPKTVETRQERLERRRREKAEQVAYKLEREIALWDPTEIKNATEDPFRTLFIARINYDTSESKLRREFEFYGPIKKIVLIHDQESGKPKGYAFIEYEHERDMHAAYKHADGKKIDSKRVLVDVERARTVKGWLPRRLGGGLGGTRRGGNDVNIKHSGREDNERERERYRLEREREDREGPGRGGGSNGLDARPGRGFGAERRRSRSRERRDRERDRGRGAVASNGRSRSRSRERRKRRAGSRERYDEFDRRDRRDRERERDRDREREKKKKRSKSRERESSRERRERKRERRDRERGTGSGGDVKERKPDFRDMDVIKIKEEPVDDGYPTFDYQNATIKREIDDEDEEKYRPPPAHHNMFSVPPPPILGRGNASTNPNPDNGQQSSGDPSWWRQ
B6: Polycomb (Pc), endogenous (protein, UniProt P26017 1-390)
chain: MTGRGKGSKGKLGRDNATDDPVDLVYAAEKIIQKRVKKGVVEYRVKWKGWNQRYNTWEPEVNILDRRLIDIYEQTNKSSGTPSKRGIKKKEKEPDPEPESEEDEYTFTENDVDTHQATTSSATHDKESKKEKKHHHHHHHHHHIKSERNSGRRSESPLTHHHHHHHHESKRQRIDHSSSSNSSFTHNSFVPEPDSNSSSSEDQPLIGTKRKAEVLKESGKIGVTIKTSPDGPTIKPQPTQQVTPSQQQPFQDQQQAEKIASEAATQLKSEQQATPLATEAINTTPAESGAEEEEVANEEGNQQAPQVPSENNNIPKPCNNLAINQKQPLTPLSPRALPPRFWLPAKCNISNRVVITDVTVNLETVTIRECKTERGFFRERDMKGDSSPVA

Target: myc-BirA*-Ubx wild type fusion (mB*Ubx^WT) (Drosophila)
Experiment: proximity labelling; twi-BioID: mB* fusion proteins expressed in the mesoderm (twi-GAL4), stage 10-13 embryos (5-8 h AEL); nuclear extract, streptavidin affinity purification, mass spectrometry; enrichment against mB*nlsGFP in at least 2 of 4 replicates

Row | binding | Binder
1 | binds | B1
2 | binds | B2
3 | binds | B3
4 | binds | B4
5 | binds | B5

Target: myc-BirA*-Ubx wild type fusion (mB*Ubx^WT) (Drosophila)
Experiment: proximity labelling; sca-BioID: mB* fusion proteins expressed in the neuroectoderm (sca-GAL4), stage 9-11 embryos (2.5-5 h AEL); nuclear extract, streptavidin affinity purification, mass spectrometry; enrichment against mB*nlsGFP in at least 2 of 4 replicates

Row | binding | Binder
6 | binds | B6
